Source: article PMC7035326
These are yes or no findings as the source states them, for the method shown. Binding seen in cells or lysates may run through a third protein.

Biological target: T1, human SAV1 (human) (UniProt Q9H4B6)
T1 sequence: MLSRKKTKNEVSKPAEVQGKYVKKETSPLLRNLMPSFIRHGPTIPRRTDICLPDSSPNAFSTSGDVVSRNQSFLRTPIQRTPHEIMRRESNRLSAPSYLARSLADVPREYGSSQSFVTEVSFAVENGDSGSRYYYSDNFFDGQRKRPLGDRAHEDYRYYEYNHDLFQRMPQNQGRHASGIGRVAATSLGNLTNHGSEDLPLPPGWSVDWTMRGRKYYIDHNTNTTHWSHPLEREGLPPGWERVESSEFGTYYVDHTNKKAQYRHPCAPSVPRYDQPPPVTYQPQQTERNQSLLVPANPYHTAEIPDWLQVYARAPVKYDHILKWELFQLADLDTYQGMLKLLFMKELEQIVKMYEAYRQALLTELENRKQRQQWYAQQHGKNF
Assay: pull-down; HEK293T cells transfected with the indicated constructs and subjected to the pulldown assay; beads, tags and buffers not told in the text shown

Acanthamoeba castellanii Hippo (enzyme)
binding: no binding
